Experimental data: PubChem BioAssay AID1259424 (University of Nebraska Medical Center, 2018)
The whole screen tested about 14,000 reagents; shown is an unselected part. 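Higher correlation or smaller distance means closer resemblance to KSR1 loss; control wells, including KSR1 knockdowns, recur on many plates.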 Not stated in the record: the time to read-out.

- Test: 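Rank knockdowns across the genome by resemblance to the KSR1 depletion profile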 (primary screen)
- System: human HCT116 colon cancer cells
- Reagents: siRNA pool against human genes, 50 nM
- Detection: 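Log2 levels of six mRNAs (branched-DNA multiplex), adjusted by two reference genes and the non-targeting median, then scored against the average KSR1 knockdown pattern as Pearson r and euclidean distance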
- Direction: mean correlation with KSR1 profile and KSR1 correlation: higher = expression change more like KSR1 knockdown; mean distance from KSR1 profile: higher = expression change less like KSR1 knockdown

The opening 4 entries as a preview:
gene symbol | PubChem SID | mean correlation with KSR1 profile | mean distance from KSR1 profile | KSR1 correlation, replicate 1 | KSR1 correlation, replicate 2 | KSR1 correlation, replicate 3
ZNHIT2 (GeneID 741) | SID363998647 | -0.151 | 1.78 | -0.0157 | -0.374 | -0.137
HOXB8 (GeneID 3218) | SID364002680 | -0.356 | 4.09 | -0.489 | -0.457 | -0.138
MIER2 (GeneID 54531) | SID364000355 | -0.675 | 3.53 | -0.671 | -0.528 | -0.593
SCML2 (GeneID 10389) | SID363996932 | -0.0658 | 2.83 | -0.0759 | -0.142 | 0.0268

The list itself, repeating the preview:
gene symbol | PubChem SID | mean correlation with KSR1 profile | mean distance from KSR1 profile | KSR1 correlation, replicate 1 | KSR1 correlation, replicate 2 | KSR1 correlation, replicate 3
ZNHIT2 (GeneID 741) | SID363998647 | -0.151 | 1.78 | -0.0157 | -0.374 | -0.137
HOXB8 (GeneID 3218) | SID364002680 | -0.356 | 4.09 | -0.489 | -0.457 | -0.138
MIER2 (GeneID 54531) | SID364000355 | -0.675 | 3.53 | -0.671 | -0.528 | -0.593
SCML2 (GeneID 10389) | SID363996932 | -0.0658 | 2.83 | -0.0759 | -0.142 | 0.0268
CAVIN3 (GeneID 112464) | SID364004641 | 0.215 | 1.83 | 0.223 | 0.0176 | 0.0937
NSUN5 (GeneID 55695) | SID364000732 | 0.345 | 3.08 | 0.322 | 0.367 | 0.4
EHBP1 (GeneID 23301) | SID363999381 | -0.574 | 3.01 | -0.514 | -0.523 | -0.516
PITX2 (GeneID 5308) | SID363991657 | -0.296 | 2.1 | -0.195 | -0.118 | -0.125
CHRNA7 (GeneID 1139) | SID363992041 | 0.341 | 3.62 | 0.502 | 0.178 | 0.21
KRTAP3-3 (GeneID 85293) | SID364004343 | 0.272 | 2.16 | 0.373 | -0.0229 | -0.079
INTS6 (GeneID 26512) | SID363998086 | 0.136 | 6.11 | 0.142 | 0.064 | 0.0247
UBE2V1 (GeneID 7335) | SID364002271 | -0.543 | 2.11 | -0.75 | -0.193 | -0.6
CEACAM19 (GeneID 56971) | SID364001569 | 0.369 | 2.59 | 0.661 | 0.161 | 0.153
MACO1 (GeneID 55219) | SID364000872 | -0.275 | 1.94 | -0.293 | -0.47 | -0.419
PEF1 (GeneID 553115) | SID363998278 | -0.258 | 2.75 | 0.152 | -0.391 | -0.659
CRYGS (GeneID 1427) | SID364000347 | 0.245 | 1.61 | 0.464 | -0.0853 | 0.00167
ITGB1 (GeneID 3688) | SID363993412 | 0.685 | 1.73 | -0.104 | 0.68 | 0.731
ARFGEF3 (GeneID 57221) | SID364001612 | -0.119 | 1.74 | -0.181 | 0.2 | -0.231
A1CF (GeneID 29974) | SID363998948 | 0.432 | 1.05 | 0.507 | 0.47 | 0.474
TIMM9 (GeneID 26520) | SID363998334 | 0.0116 | 2.21 | -0.256 | -0.371 | 0.0188
GEMIN2 (GeneID 8487) | SID363994694 | 0.352 | 1.58 | 0.371 | 0.128 | 0.295
SLC23A1 (GeneID 9963) | SID363996721 | -0.575 | 2.38 | -0.33 | -0.663 | -0.542
MRPS12 (GeneID 6183) | SID364002014 | -0.352 | 1.86 | -0.312 | -0.45 | -0.107
MATN3 (GeneID 4148) | SID363993561 | -0.181 | 1.84 | -0.00626 | -0.324 | -0.275
PYGO1 (GeneID 26108) | SID363999606 | -0.602 | 2.55 | -0.479 | -0.675 | -0.536
N4BP2L2 (GeneID 10443) | SID363999173 | -0.706 | 5.34 | -0.653 | -0.177 | -0.0316
C7 (GeneID 730) | SID363991905 | 0.198 | 3.04 | 0.16 | 0.213 | 0.0183
TNIK (GeneID 23043) | SID364005124 | 0.547 | 1.84 | 0.592 | 0.6 | 0.65
COL6A3 (GeneID 1293) | SID363995355 | -0.643 | 2.96 | -0.485 | -0.642 | -0.798
NEDD9 (GeneID 4739) | SID363997214 | -0.0871 | 2.02 | 0.156 | -0.229 | -0.0807
PAQR7 (GeneID 164091) | SID364004911 | 0.53 | 1.12 | 0.211 | 0.613 | 0.714
CPNE1 (GeneID 8904) | SID363994971 | 0.185 | 1.61 | 0.372 | 0.411 | 0.0418
CHSY1 (GeneID 22856) | SID363999195 | -0.474 | 2.2 | -0.239 | -0.456 | -0.651
OTX2 (GeneID 5015) | SID364002171 | 0.159 | 0.997 | 0.357 | 0.859 | -0.937
